{
  "source": "patent US8728470B2",
  "about": "“CAB molecules” (Danisco US Inc., priority 2004, dated 2014)",
  "experiment": "PK and tissue distribution of GC-Mel/Mel at various intervals after CAB 1.11i in TLS174T xenograft mice",
  "assay_type": "in vivo, Ncr athymic nude mice",
  "conditions": "GC-Mel 24, 48, 72, 96 hr after CAB 1.11i; FIG. 18",
  "protocol": "We assessed the tumor retention characteristics of CAB1.11i by monitoring the formation of Mel from the administration of GC-Mel. Dosing solutions were prepared on the day of dosing, within 60 minutes of administration.\nThe concentration of the formulation of GC-Mel in bicarbonate/sucrose was based on average […] weight, the desired volume of administration and a dose level of 150 mg/kg. GC-Mel was weighed out and, based on this weight, the appropriate amount of sodium bicarbonate to neutralize all 3 equivalents of the three carboxylic acid sites of GC-Mel was determined. Vehicle was prepared in the required volume by adding the precalculated sodium bicarbonate solution in 5% aqueous sucrose. Vehicle was prechilled at 4° C. Cold vehicle was added to the GC-Mel powder and the mixture was vortexed and sonicated to achieve speedy dissolution.\nThe animals were be implanted subcutaneously on the flank with 2×10^6 TLS174T cells, a human colorectal tumor line, in 100 μl of phosphate buffered saline. Beginning approximately one week after tumor cell implant, tumors were measured every 3 to 4 days. […]\nMice were warmed with a heating lamp and heating pad, placed in a restrainer and the test compounds were administered by bolus intravenous injection via the tail vein. […] Sample concentrations were determined. […]",
  "note": "At least one read-out could not be matched to a standard name with certainty.",
  "data": [
    {"smiles": "N[C@@H](Cc1ccc(N(CCCl)CCCl)cc1)C(=O)O", "note": "[Mel, Melphalan]", "values": [
      {"measurement": "tumor melphalan exposure (AUC)", "value": "efficacious tumor melphalan exposures are achieved at each time period"}
    ]}
  ]
}
